Values of other authors in patent US20130053387A1, “DESAZADESFERROTHIOCIN AND DESAZADESFERROTHIOCIN POLYETHER ANALOGUES AS METAL CHELATION AGENTS” (FerroKin BioScience, Inc., priority 2010, published 2013).

What was measured:
[1] = cited from earlier work; for ICE Ratio: ICE in primate to ICE in rodent; for Primate ICE [urine/bile]: mode of iron excretion
[2] = rats, 300 μmol/kg intraperitoneally immediately after uranyl acetate; mode of excretion; cited from earlier work

Structure (SMILES) | ICE Ratio [1] | Uranium Excretion [urine/bile] [2] | Primate ICE [urine/bile] ([1]; capsule) | Primate ICE [urine/bile] ([1]; sodium salt)
COCCOCCOCCOCCOc1cccc(C2=N[C@@](C)(C(=O)O)CS2)c1O [Example F, (S)-2-(3-(2,5,8,11-tetraoxamidecan-13-yloxy)-2-hydroxyphenyl)-4-methyl-4,5-dihydrothiazole-4-carboxylic acid] | 0.8 |  |  | 
COCCOCCOCCOc1ccc(C2=N[C@@](C)(C(=O)O)CS2)c(O)c1 [Example B, (S)-2-(2-hydroxy-4-(2-(2-(2-methoxyethoxy)ethoxy)ethoxy)phenyl)-4-methyl-4,5-dihydrothiazole-4-carboxylic acid] | 4.6 | [35/65] |  | 
COCCOCCOCCOc1cccc(C2=N[C@@](C)(C(=O)O)CS2)c1O [Example E, (S)-2-(2-hydroxy-3-(2-(2-(2-methoxyethoxy)ethoxy)ethoxy)phenyl)-4-methyl-4,5-dihydrothiazole-4-carboxylic acid] | 2.2 |  |  | 
COCCOCCOCCOCCOc1ccc(C2=N[C@@](C)(C(=O)O)CS2)c(O)c1 [Example C, (S)-2-(4-(2,5,8,11-tetraoxamidecan-13-yloxy)-2-hydroxyphenyl)-4-methyl-4,5-dihydrothiazole-4-carboxylic acid] | 0.8 |  |  | 
COCCOCCOc1ccc(C2=N[C@@](C)(C(=O)O)CS2)c(O)c1 [Example A, (S)-2-(2-hydroxy-4-(2-(2-methoxyethoxy)ethoxy)phenyl)-4-methyl-4,5-dihydrothiazole-4-carboxylic acid] |  |  | [93/7] | [83/17]

Read-outs that look alike come from different tables or passages of the source.
